US7893056B2, “Peptide deformylase inhibitors” (GlaxoSmithKline LLC, priority 2007, dated 2011)
Some entries share one result that the patent states for a list of compounds.

What was measured:
[1] = target: T1, Streptococcus pneumoniae PDF (Streptococcus pneumoniae serotype 4, UniProt Q9F2F0); assay: PDF IC50 assay (FDH-coupled), S. pneumoniae PDF; format: biochemical; conditions: read-out: IC50, inhibition of S. pneumoniae PDF activity
T1 sequence (Q9F2F0 1-203): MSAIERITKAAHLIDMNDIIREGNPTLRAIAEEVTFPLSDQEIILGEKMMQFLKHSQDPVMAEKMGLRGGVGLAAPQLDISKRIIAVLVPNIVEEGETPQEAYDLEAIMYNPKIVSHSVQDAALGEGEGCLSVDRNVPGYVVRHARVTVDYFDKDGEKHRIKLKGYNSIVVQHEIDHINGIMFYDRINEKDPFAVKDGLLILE

[2] = target: T2, Staphylococcus aureus PDF (SaPDF) (Staphylococcus aureus, UniProt P68826); assay: PDF IC50 assay (FDH-coupled), S. aureus PDF; format: biochemical; conditions: read-out: IC50, inhibition of S. aureus PDF activity
T2 sequence (P68826 1-183): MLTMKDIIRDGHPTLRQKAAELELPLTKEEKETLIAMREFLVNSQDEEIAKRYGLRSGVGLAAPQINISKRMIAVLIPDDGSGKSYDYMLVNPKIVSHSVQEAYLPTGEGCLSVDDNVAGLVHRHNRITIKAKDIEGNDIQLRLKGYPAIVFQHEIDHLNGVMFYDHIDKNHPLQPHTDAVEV

Compound	IC50 [1] [nM]	IC50 [2] [nM]
Cc1nc(NNC(=O)[C@H](CC2CCCC2)CN(O)C=O)c(F)c(NC(C)C)n1 [Example 16, [(2R)-2-(Cyclopentylmethyl)-3-(2-{5-fluoro-2-methyl-6-[(1-methylethyl)amino]-4-pyrimidinyl}hydrazino)-3-oxopropyl]hydroxyformamide]	≤ 100	≤ 100
CCCCNc1nc(C)nc(NNC(=O)[C@H](CC2CCCC2)CN(O)C=O)c1F [Example 78, N-[(2R)-3-{2-[6-(Butylamino)-5-fluoro-2-methyl-4-pyrimidinyl]hydrazino}-2-(cyclopentylmethyl)-3-oxopropyl]-N-hydroxyformamide]	≤ 100	≤ 100
Cc1nc(NNC(=O)[C@H](CC2CCCC2)CN(O)C=O)c(F)c(N2CCOCC2)n1 [Example 10, ((2R)-2-(Cyclopentylmethyl)-3-{2-[5-fluoro-2-methyl-6-(4-morpholinyl)-4-pyrimidinyl]hydrazino}-3-oxopropyl)hydroxyformamide]	≤ 100	≤ 100
CCCNc1nc(C)nc(NNC(=O)[C@H](CC2CCCC2)CN(O)C=O)c1F [Example 72, ((2R)-2-(Cyclopentylmethyl)-3-{2-[5-fluoro-2-methyl-6-(propylamino)-4-pyrimidinyl]hydrazino}-3-oxopropyl)hydroxyformamide]	≤ 100	≤ 100
CN1CCN(c2nc(Cl)nc(NNC(=O)[C@H](CC3CCCC3)CN(O)C=O)c2F)C(C)(C)C1 [Example 147, [(2R)-3-{2-[2-Chloro-5-fluoro-6-(2,2,4-trimethyl-1-piperazinyl)-4-pyrimidinyl]hydrazino}-2-(cyclopentylmethyl)-3-oxopropyl]hydroxyformamide]	≤ 100	≤ 100
CCc1nc(NNC(=O)[C@H](CC2CCCC2)CN(O)C=O)c(F)c(N2CCN(C(C)C)CC2)n1 [Example 36, N-[(2R)-2-(Cyclopentylmethyl)-3-(2-{2-ethyl-5-fluoro-6-[4-(1-methylethyl)-1-piperazinyl]-4-pyrimidinyl}hydrazino)-3-oxopropyl]-N-hydroxyformamide]	≤ 100	≤ 100
CCc1nc(NNC(=O)[C@H](CC2CCCC2)CN(O)C=O)c(F)c(N2CCN3CCC[C@H]3C2)n1 [Example 104, [(2R)-2-(Cyclopentylmethyl)-3-(2-{2-ethyl-5-fluoro-6-[(8aS)-hexahydropyrrolo[1,2-a]pyrazin-2(1H)-yl]-4-pyrimidinyl}hydrazino)-3-oxopropyl]hydroxyformamide]	≤ 100	≤ 100
Cc1nc(NNC(=O)[C@H](CC2CCCC2)CN(O)C=O)c(F)c(N2CCC[C@H]2CN(C)C(C)C)n1 [Example 270, ((2R)-2-(Cyclopentylmethyl)-3-{2-[5-fluoro-2-methyl-6-((2S)-2-{[methyl(1-methylethyl)amino]methyl}-1-pyrrolidinyl)-4-pyrimidinyl]hydrazino}-3-oxopropyl)hydroxyformamide]	≤ 100	≤ 100
CN(Cc1nccs1)c1nc(Cl)nc(NNC(=O)[C@H](CC2CCCC2)CN(O)C=O)c1F [Example 192, [(2R)-3-(2-{2-Chloro-5-fluoro-6-[methyl(1,3-thiazol-2-ylmethyl)amino]-4-pyrimidinyl}hydrazino)-2-(cyclopentylmethyl)-3-oxopropyl]hydroxyformamide]	≤ 100	≤ 100
CCc1nc(NNC(=O)[C@H](CC2CCCC2)CN(O)C=O)c(F)c(N2CCC2)n1 [Example 2, [(2R)-3-{2-[6-(1-Azetidinyl)-2-ethyl-5-fluoro-4-pyrimidinyl]hydrazino}-2-(cyclopentylmethyl)-3-oxopropyl]hydroxyformamide]	≤ 100	≤ 100
CSc1nc(NNC(=O)[C@H](CC2CCCC2)CN(O)C=O)c(F)c(N2CC[C@@H](O)C2)n1 [Example 49, ((2R)-2-(Cyclopentylmethyl)-3-{2-[5-fluoro-6-[(3R)-3-hydroxy-1-pyrrolidinyl]-2-(methylthio)-4-pyrimidinyl]hydrazino}-3-oxopropyl)hydroxyformamide]	≤ 100	≤ 100
CCc1nc(NNC(=O)[C@H](CC2CCCC2)CN(O)C=O)c(F)c(N[C@@H](CC)C(=O)N(C)C)n1 [Example 84, (2S)-2-[(6-{2-[(2R)-3-Cyclopentyl-2-{[formyl(hydroxy)amino]methyl}propanoyl]hydrazino}-2-ethyl-5-fluoro-4-pyrimidinyl)amino]-N,N-dimethylbutanamide]	≤ 100	≤ 100
C[C@H]1CN(c2nc(C(F)F)nc(NNC(=O)[C@H](CC3CCCC3)CN(O)C=O)c2F)CCN1C [Example 95, [(2R)-2-(Cyclopentylmethyl)-3-(2-{2-(difluoromethyl)-6-[(3S)-3,4-dimethyl-1-piperazinyl]-5-fluoro-4-pyrimidinyl}hydrazino)-3-oxopropyl]hydroxyformamide]	≤ 100	≤ 100
CN(CCO)C[C@@H]1CCCN1c1nc(Cl)nc(NNC(=O)[C@H](CC2CCCC2)CN(O)C=O)c1F [Example 249, [(2R)-3-{2-[2-Chloro-5-fluoro-6-((2S)-2-{[(2-hydroxyethyl)(methyl)amino]methyl}-1-pyrrolidinyl)-4-pyrimidinyl]hydrazino}-2-(cyclopentylmethyl)-3-oxopropyl]hydroxyformamide]	≤ 100	≤ 100
CCc1nc(NNC(=O)[C@H](CC2CCCC2)CN(O)C=O)c(F)c(N2CCC[C@H]2C(=O)N(C)C)n1 [Example 37, 1-(6-{2-[(2R)-3-Cyclopentyl-2-{[formyl(hydroxy)amino]methyl}propanoyl]hydrazino}-2-ethyl-5-fluoro-4-pyrimidinyl)-N,N-dimethyl-L-prolinamide]	≤ 100	≤ 100
CN(Cc1ccco1)c1nc(Cl)nc(NNC(=O)[C@H](CC2CCCC2)CN(O)C=O)c1F [Example 207, [(2R)-3-(2-{2-Chloro-5-fluoro-6-[(2-furanylmethyl)(methyl)amino]-4-pyrimidinyl}hydrazino)-2-(cyclopentylmethyl)-3-oxopropyl]hydroxyformamide]	≤ 100	≤ 100
O=CN(O)C[C@@H](CC1CCCC1)C(=O)NNc1nc(Cl)nc(N2CCN3CCOC[C@@H]3C2)c1F [Example 65, [(2R)-3-(2-{2-Chloro-5-fluoro-6-[(9aS)-hexahydropyrazino[2,1-c][1,4]oxazin-8(1H)-yl]-4-pyrimidinyl}hydrazino)-2-(cyclopentylmethyl)-3-oxopropyl]hydroxyformamide]	≤ 100	≤ 100
CCN(C)c1nc(C)nc(NNC(=O)[C@H](CC2CCCC2)CN(O)C=O)c1F [Example 18, [(2R)-2-(Cyclopentylmethyl)-3-(2-{6-[ethyl(methyl)amino]-5-fluoro-2-methyl-4-pyrimidinyl}hydrazino)-3-oxopropyl]hydroxyformamide]	≤ 100	≤ 100
CN(C)C1CN(c2nc(Cl)nc(NNC(=O)[C@H](CC3CCCC3)CN(O)C=O)c2F)CC1N(C)C (stereo partly drawn) [Example 113, [(2R)-3-(2-{6-[Syn-3,4-bis(dimethylamino)-1-pyrrolidinyl]-2-chloro-5-fluoro-4-pyrimidinyl}hydrazino)-2-(cyclopentylmethyl)-3-oxopropyl]hydroxyformamide]	≤ 100	≤ 100
